What is called Ki is the dissociation constant of the complex between target and ligand, obtained from inhibition or displacement.

Amino acid sequences for entries named in this document (tags omitted). A change or cut given only in a name is not applied to a line headed by its entry.
UniProt P22894: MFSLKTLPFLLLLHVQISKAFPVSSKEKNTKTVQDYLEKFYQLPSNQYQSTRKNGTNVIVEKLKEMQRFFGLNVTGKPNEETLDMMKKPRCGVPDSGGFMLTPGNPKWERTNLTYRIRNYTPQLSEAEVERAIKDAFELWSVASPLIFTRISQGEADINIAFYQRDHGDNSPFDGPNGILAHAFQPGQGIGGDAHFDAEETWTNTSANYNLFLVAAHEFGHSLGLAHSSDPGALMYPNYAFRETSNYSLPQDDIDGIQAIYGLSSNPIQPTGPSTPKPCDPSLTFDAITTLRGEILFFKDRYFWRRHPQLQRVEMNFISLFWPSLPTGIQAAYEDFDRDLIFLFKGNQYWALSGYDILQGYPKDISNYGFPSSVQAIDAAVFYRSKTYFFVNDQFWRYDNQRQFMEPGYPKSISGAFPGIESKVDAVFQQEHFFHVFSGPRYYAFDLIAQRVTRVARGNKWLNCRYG

Experimental findings from ChEMBL document CHEMBL1128130, “Hydroxamate inhibitors of human gelatinase B (92 kDa)” (Bioorg Med Chem Lett, 1995) are described below.

Bounds are passed on as bounds.

For the test, the target named is Neutrophil collagenase (Homo sapiens, UniProt P22894).

In turn, `CNC(=O)[C@H](Cc1ccccc1)NC(=O)[C@@H](CC(=O)NO)CC(C)C` had a Ki of less than 1 nM.
